The values below come from the supplement of paper PMC10849652.

Chains of the proteins cited; added tags and fusions are not shown. Lines headed by an entry give the natural chain unless they say otherwise; changes in a name come on top.
UniProt Q5BKZ1: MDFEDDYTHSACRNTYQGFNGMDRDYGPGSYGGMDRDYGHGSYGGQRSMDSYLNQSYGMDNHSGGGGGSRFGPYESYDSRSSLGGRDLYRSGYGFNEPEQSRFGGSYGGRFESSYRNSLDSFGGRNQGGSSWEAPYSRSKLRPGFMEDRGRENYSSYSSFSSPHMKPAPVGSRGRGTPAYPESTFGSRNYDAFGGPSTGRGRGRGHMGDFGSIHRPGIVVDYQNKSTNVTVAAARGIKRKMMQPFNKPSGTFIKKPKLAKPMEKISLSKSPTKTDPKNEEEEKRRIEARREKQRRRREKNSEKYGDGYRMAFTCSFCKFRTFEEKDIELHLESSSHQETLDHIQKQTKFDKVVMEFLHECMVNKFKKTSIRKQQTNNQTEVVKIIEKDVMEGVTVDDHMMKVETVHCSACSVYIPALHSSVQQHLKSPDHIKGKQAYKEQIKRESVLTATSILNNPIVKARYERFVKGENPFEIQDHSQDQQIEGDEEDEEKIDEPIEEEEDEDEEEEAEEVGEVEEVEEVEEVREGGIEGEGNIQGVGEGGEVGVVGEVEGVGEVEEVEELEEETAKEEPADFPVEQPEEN
UniProt Q9UID6: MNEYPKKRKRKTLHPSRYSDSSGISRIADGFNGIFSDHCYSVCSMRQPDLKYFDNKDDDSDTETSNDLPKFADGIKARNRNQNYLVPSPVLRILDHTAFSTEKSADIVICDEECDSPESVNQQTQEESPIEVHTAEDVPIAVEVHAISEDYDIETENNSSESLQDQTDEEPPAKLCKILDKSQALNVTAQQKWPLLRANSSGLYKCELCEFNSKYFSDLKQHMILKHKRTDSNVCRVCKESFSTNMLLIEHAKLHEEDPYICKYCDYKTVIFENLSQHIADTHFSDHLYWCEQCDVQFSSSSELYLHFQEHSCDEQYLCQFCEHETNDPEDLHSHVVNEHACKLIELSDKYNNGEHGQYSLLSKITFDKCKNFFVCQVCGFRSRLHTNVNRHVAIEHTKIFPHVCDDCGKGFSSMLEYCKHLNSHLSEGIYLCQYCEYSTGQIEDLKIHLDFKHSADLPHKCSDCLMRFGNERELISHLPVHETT
UniProt Q19AV6: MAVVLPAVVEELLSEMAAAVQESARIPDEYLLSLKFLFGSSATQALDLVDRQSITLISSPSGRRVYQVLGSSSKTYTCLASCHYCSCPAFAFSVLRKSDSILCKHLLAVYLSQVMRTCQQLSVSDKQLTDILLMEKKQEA
UniProt Q86YA3: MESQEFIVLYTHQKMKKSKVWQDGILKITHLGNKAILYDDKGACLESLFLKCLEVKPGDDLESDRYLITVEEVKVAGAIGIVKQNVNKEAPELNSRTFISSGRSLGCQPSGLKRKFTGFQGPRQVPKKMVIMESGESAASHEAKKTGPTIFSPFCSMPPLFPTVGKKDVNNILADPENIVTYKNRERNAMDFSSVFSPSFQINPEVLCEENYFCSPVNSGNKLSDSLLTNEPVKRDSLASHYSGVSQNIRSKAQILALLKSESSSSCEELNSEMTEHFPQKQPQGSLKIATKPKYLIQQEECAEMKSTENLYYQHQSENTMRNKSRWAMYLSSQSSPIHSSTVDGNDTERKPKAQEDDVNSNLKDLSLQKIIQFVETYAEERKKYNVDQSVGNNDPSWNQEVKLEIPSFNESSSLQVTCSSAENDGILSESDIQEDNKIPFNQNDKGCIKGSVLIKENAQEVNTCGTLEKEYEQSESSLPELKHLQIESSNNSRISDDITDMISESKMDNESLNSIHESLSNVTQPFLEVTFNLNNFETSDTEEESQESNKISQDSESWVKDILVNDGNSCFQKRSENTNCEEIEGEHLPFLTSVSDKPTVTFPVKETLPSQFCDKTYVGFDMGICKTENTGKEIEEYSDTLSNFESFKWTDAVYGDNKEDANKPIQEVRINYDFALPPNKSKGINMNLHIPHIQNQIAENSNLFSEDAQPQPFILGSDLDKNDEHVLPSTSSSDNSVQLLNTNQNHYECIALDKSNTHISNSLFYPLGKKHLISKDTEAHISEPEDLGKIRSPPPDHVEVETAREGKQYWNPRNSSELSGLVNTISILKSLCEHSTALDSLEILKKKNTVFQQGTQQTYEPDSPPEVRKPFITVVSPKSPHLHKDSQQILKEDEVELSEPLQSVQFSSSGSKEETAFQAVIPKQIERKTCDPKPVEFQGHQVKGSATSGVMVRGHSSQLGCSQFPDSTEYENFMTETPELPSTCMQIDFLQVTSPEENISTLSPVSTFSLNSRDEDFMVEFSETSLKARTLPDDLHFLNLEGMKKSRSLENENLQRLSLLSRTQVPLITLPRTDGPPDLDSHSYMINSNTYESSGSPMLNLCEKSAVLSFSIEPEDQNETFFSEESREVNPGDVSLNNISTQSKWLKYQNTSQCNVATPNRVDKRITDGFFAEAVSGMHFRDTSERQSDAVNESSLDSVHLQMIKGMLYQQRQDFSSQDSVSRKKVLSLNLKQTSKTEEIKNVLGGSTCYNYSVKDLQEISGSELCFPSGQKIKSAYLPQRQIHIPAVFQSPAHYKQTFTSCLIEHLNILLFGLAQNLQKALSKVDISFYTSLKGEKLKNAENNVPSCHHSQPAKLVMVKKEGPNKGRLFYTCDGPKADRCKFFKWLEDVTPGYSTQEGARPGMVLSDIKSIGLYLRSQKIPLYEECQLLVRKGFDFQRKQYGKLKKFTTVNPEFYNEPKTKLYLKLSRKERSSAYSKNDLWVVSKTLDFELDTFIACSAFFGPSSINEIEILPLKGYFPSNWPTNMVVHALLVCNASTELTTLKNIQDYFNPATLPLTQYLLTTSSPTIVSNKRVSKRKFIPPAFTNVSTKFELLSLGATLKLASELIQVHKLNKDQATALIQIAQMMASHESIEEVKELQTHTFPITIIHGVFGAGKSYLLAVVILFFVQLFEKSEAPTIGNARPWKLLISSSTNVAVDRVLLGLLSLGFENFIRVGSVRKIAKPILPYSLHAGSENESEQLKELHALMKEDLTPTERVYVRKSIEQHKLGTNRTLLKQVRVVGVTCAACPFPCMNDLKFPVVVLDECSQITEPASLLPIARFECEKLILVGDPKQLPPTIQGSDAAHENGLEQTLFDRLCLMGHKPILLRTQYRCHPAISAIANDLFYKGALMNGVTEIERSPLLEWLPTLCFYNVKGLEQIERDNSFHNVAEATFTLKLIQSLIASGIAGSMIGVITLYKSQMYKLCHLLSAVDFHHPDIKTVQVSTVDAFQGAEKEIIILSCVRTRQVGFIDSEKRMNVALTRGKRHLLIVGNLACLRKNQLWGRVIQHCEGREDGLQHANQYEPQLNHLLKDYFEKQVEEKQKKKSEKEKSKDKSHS
UniProt Q99676: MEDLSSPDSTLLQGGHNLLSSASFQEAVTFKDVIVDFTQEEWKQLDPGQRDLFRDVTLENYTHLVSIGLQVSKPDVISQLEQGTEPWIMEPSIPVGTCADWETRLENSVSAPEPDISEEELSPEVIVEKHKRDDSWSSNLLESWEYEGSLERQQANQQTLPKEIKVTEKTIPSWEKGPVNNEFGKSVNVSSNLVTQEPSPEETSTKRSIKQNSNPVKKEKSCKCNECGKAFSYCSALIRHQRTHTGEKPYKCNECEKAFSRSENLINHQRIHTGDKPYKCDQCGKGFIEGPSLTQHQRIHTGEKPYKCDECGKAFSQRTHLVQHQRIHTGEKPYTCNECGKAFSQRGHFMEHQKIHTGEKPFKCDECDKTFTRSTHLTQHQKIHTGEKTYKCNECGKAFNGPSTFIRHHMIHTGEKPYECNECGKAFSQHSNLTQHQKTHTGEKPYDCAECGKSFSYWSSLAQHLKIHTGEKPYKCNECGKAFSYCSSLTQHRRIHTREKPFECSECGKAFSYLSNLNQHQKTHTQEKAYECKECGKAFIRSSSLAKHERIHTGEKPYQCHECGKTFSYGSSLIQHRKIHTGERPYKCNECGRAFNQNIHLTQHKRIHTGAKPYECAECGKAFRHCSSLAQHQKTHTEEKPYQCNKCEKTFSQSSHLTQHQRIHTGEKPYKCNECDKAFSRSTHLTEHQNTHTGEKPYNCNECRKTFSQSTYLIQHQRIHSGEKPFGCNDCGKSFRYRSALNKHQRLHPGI
UniProt Q8TF68: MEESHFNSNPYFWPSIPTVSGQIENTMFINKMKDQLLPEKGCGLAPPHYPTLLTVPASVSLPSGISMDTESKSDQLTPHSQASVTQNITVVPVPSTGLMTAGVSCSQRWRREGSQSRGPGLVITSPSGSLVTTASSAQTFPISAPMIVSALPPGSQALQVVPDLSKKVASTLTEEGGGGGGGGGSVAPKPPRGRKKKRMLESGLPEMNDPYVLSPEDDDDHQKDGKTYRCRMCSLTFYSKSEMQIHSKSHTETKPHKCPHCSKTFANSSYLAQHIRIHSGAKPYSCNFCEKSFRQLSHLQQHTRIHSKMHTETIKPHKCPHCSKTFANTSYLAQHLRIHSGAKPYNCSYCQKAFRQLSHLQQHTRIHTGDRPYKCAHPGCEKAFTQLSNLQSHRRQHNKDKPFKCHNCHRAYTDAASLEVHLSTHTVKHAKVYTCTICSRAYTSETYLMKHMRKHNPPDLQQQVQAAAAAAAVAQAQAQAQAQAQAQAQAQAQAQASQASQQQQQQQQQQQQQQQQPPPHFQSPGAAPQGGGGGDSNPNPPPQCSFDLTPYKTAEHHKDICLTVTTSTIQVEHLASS
UniProt Q8N4W9: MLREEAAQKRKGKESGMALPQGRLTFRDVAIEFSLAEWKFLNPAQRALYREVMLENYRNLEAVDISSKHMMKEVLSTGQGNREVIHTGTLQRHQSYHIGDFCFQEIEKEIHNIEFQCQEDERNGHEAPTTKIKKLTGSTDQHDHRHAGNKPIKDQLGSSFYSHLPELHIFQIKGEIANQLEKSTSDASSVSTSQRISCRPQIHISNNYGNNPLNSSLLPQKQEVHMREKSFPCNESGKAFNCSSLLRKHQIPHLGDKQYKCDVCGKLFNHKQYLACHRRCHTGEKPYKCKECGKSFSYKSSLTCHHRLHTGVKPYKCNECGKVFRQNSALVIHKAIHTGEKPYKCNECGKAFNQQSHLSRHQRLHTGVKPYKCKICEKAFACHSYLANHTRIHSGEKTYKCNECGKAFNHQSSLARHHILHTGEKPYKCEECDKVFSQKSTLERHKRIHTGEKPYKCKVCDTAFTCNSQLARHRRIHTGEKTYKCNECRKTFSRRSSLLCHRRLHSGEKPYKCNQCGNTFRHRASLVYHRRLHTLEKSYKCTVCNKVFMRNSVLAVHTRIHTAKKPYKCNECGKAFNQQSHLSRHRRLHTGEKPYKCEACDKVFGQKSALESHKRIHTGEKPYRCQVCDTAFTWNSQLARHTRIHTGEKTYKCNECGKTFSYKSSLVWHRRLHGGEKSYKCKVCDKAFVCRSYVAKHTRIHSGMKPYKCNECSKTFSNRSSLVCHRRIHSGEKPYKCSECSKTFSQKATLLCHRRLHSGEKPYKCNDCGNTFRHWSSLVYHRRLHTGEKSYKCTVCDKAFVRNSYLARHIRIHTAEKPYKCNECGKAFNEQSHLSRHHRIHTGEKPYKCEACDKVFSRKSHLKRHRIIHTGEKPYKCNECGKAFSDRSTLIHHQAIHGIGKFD
UniProt Q2TB10: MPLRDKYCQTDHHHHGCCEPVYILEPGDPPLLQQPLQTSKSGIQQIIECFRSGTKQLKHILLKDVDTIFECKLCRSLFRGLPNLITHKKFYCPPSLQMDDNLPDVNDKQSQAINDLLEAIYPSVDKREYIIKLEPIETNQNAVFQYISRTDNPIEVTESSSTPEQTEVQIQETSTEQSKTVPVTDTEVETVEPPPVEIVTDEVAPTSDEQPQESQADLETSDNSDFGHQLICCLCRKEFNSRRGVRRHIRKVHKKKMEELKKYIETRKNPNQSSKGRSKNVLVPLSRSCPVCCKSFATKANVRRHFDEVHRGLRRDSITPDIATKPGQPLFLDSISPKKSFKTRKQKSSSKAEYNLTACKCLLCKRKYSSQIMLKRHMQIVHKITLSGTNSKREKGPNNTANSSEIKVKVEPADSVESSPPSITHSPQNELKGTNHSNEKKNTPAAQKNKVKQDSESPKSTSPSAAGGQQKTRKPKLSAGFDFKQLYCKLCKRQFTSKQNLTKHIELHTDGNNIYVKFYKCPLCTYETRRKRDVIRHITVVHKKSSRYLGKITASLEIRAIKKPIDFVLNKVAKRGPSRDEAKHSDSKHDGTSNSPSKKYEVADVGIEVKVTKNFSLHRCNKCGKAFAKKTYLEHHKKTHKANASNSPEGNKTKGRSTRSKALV
UniProt Q9BS34: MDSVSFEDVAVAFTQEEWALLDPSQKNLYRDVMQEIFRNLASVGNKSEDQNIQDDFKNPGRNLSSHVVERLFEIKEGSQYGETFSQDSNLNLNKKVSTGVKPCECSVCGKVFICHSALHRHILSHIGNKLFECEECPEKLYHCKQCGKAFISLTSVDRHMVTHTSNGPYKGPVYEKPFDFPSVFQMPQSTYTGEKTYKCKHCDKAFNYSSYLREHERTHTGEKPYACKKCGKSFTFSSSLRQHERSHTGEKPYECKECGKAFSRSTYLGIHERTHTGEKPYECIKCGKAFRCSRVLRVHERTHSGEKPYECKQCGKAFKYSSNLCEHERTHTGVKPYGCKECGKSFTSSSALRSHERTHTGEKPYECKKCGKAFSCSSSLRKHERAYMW

The list shows a part of the results.

Compound in one test: CC1=C2C(=CC=C1)N=C(N(C2=O)C3=CC=CC=C3C)CN4C=NC5=C(N=CN=C54)N
In words: log2 fold change, soluble protein after heating vs DMSO (PISA); higher = thermal stabilisation; K562 lysate, 10 uM; active = over 0.2 and 3.5 SD of the protein, either way, in both replicates (recomputed). A digest of the protocol: (§1)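 K562 pellets were dounce-homogenised in PBS pH 7.4 with 1 mM MgCl2, and the crude extract at 1 mg/mL protein was treated with 10 μM compound for 30 min. Aliquots were heated for 3 min across 48°C-58°C, pooled, and brought to 0.5% NP-40 at 4°C; soluble protein was the supernatant after 21,000xg for 90 min. Soluble protein was quantified by TMTpro 16plex LC-MS/MS with channel sums equalised, and reported as log2 fold change in thermal stability against DMSO controls, with values from duplicates.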
Turning to ZNF93 (UniProt P35789), the log2 fold change is inactive: 0.035.

For ZNF326 (UniProt Q5BKZ1), the log2 fold change was inactive: -0.114.

Regarding ZNF639 (UniProt Q9UID6), the log2 fold change is inactive: 0.083.

ZNF655 isoform 2 (UniProt Q8N720): the log2 fold change was inactive: -0.14.

For the target ZNF618 (UniProt B1ALC2), the log2 fold change was inactive: -0.13.

For ZNF595 (UniProt Q8IYB9), the log2 fold change was inactive: -0.06.

On to ZSWIM7 (UniProt Q19AV6), for which the log2 fold change is inactive: -0.137.

In the case of ZNF852 (UniProt Q6ZMS4), the log2 fold change was inactive: 0.259.

Compound in a further test: Cc1sc2c(c1C)C(c1ccc(Cl)cc1)=N[C@@H](CC(=O)OC(C)(C)C)c1nnc(C)n1-2
The test is described as above. A digest of the protocol:
as §1
ZNF93 (UniProt P35789): the log2 fold change was inactive: 0.051.

As for ZGRF1 (UniProt Q86YA3), the log2 fold change was inactive: -0.002.

As to ZSCAN25 (UniProt Q6NSZ9), the log2 fold change was inactive: 0.014.

As to ZNF184 (UniProt Q99676), the log2 fold change was inactive: 0.005.

Take ZNF384 (UniProt Q8TF68): the log2 fold change is inactive: -0.187.

Turning to ZNF101 (UniProt Q8IZC7), the log2 fold change was inactive: -0.007.

With ZNF326 (UniProt Q5BKZ1), the log2 fold change was inactive: 0.07.

For the target ZNF281 (UniProt Q9Y2X9), the log2 fold change was inactive: -0.02.

On to ZNF562 (UniProt Q6V9R5), for which the log2 fold change is inactive: -0.064.

ZNF639 (UniProt Q9UID6): the log2 fold change is inactive: -0.034.

With ZNF526 (UniProt Q8TF50), the log2 fold change is inactive: -0.066.

Turning to ZNF785 (UniProt A8K8V0), the log2 fold change is inactive: 0.102.

For ZUP1 (UniProt Q96AP4), the log2 fold change was inactive: -0.073.

With ZNF146 (UniProt Q15072), the log2 fold change is inactive: -0.059.

In the case of ZNF813 (UniProt Q6ZN06), the log2 fold change is inactive: 0.251.

For the target ZNF618 (UniProt B1ALC2), the log2 fold change is inactive: -0.11.

As for ZNF808 (UniProt Q8N4W9), the log2 fold change is inactive: -0.045.

Turning to ZNF280A (UniProt P59817), the log2 fold change is inactive: -0.004.

With ZNF687 (UniProt Q8N1G0), the log2 fold change was inactive: 0.022.

Turning to ZSWIM7 (UniProt Q19AV6), the log2 fold change was inactive: -0.033.

On to ZNF800 (UniProt Q2TB10), for which the log2 fold change was inactive: 0.167.

Compound in another test: c1ccc([C@@H]2C[C@H]2NC2CCNCC2)cc1
Described as above. Summed up:
as §1
Take ZGRF1 (UniProt Q86YA3): the log2 fold change is inactive: 0.224.

For the target ZNF414 isoform 2 (UniProt Q96IQ9), the log2 fold change is inactive: 0.123.

Regarding ZNF326 (UniProt Q5BKZ1), the log2 fold change was inactive: -0.01.

Turning to ZNF639 (UniProt Q9UID6), the log2 fold change was inactive: 0.027.

In the case of ZNF526 (UniProt Q8TF50), the log2 fold change was inactive: 0.123.

With ZSCAN21 (UniProt Q9Y5A6), the log2 fold change was inactive: -0.074.

For the target ZNF286A (UniProt Q9HBT8), the log2 fold change was inactive: -0.068.

In the case of ZNRD1 (UniProt Q9P1U0), the log2 fold change was inactive: -0.099.

In the case of ZNF655 isoform 2 (UniProt Q8N720), the log2 fold change is inactive: 0.115.

For ZNF48 (UniProt Q96MX3), the log2 fold change is inactive: 0.037.

Consider ZNF670 (UniProt Q9BS34), for which the log2 fold change is inactive: -0.147.

For the target ZNF813 (UniProt Q6ZN06), the log2 fold change was inactive: 0.143.

As to ZNF324 (UniProt O75467), the log2 fold change was inactive: -0.084.

ZNF618 (UniProt B1ALC2): the log2 fold change was inactive: 0.058.

With ZNF595 (UniProt Q8IYB9), the log2 fold change is inactive: -0.019.

Regarding ZSWIM7 (UniProt Q19AV6), the log2 fold change is inactive: -0.184.

On to ZNF280D (UniProt Q6N043), for which the log2 fold change was inactive: 0.035.

As to ZNF852 (UniProt Q6ZMS4), the log2 fold change was inactive: 0.116.
